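Control-channel Italica luciferase signal in doxycycline-induced 293T-iDUX4 cells, given as percent activity after a 24-hour treatment. The test concentration is not given here. Percent change in the Italica control signal; more negative values mean stronger inhibition, which points to nonspecific, tet-on or cytotoxic effects.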

Values are in %. Common to all entries: measured here: Italica tet-on control reporter. Part of the compounds only, not a random draw; the main read-out is not listed here.

structure: OC[C@H]1[C@H](c2ccc(C#Cc3cccnc3)cc2)[C@H]2CN(Cc3ccccc3F)CCCCN21
activity change (%): -20.14

structure: CS(=O)(=O)N1CC(=O)N2[C@H](CO)[C@H](c3ccc(C#CCc4ccccc4)cc3)[C@@H]2C1
activity change (%): -2.405

structure: C[C@H](O)C#Cc1ccc([C@H]2[C@@H](CO)N3CCCCN(S(=O)(=O)c4ccccc4)C[C@H]23)cc1
activity change (%): -63.64

structure: COc1ccc2c3c(n(C)c2c1)[C@@H](CO)N(Cc1ccc(Cl)cc1)CC31CCN(C(=O)NC(C)C)CC1
activity change (%): -31.62

structure: Fc1cccc(-c2ccc([C@@H]3[C@@H]4CN(Cc5nccs5)C[C@H]3N4)cc2)c1
activity change (%): -26.03

structure: COc1ccc2c3c([nH]c2c1)[C@@H](CO)N(C(=O)c1ccc(F)cc1)CC31CCN(C(=O)CC2CC2)CC1
activity change (%): 14.1

structure: COc1ccc2c3c([nH]c2c1)[C@H](CO)N(C(=O)NC(C)C)CC31CCN(C(=O)NC2CCCC2)CC1
activity change (%): -7.838

structure: CO[C@H](CN(C)Cc1cc(F)ccc1F)[C@@H](C)CN([C@@H](C)CO)S(=O)(=O)c1ccc(C)cc1
activity change (%): -30.48

structure: CCC(=O)N1CCC2(CC1)CN(Cc1cccc(Cl)c1)[C@H](CO)c1c2c2ccc(OC)cc2n1C
activity change (%): -16.3

structure: COc1ccc2c3c([nH]c2c1)[C@@H](CO)N(C(C)=O)CC31CCN(Cc2ccccc2Cl)CC1
activity change (%): -60.99

structure: CN1c2ccc(C#Cc3cccnc3)cc2[C@H]2[C@H](CCN2S(=O)(=O)c2ccc(F)cc2)[C@@H]1CO
activity change (%): -8.711

structure: COc1ccc(CN2C[C@@H](C)[C@H](OC)CN(C)C(=O)c3cc(NC(=O)c4nc5ccccc5s4)ccc3OC[C@@H]2C)cc1
activity change (%): -34.37

structure: N#Cc1ccc(-c2ccc(C3[C@@H]4CN(S(=O)(=O)c5ccc(F)cc5)C[C@H]3N4)cc2)cc1 (some centres not stated)
activity change (%): -61.75

structure: COc1ccc(C#Cc2ccc3c(c2)[C@@H]2[C@@H](CCN2C(=O)c2ccccc2F)[C@@H](CO)N3C)cc1
activity change (%): -8.561

structure: COc1ccc2c3c(n(C)c2c1)[C@@H](CO)N(CC1CC1)CC31CCN(S(=O)(=O)c2cccs2)CC1
activity change (%): -47.17

structure: COc1cccc(S(=O)(=O)Nc2ccc3c(c2)[C@@H]2C[C@@H](CC(=O)NC4CCCCC4)O[C@@H](CO)[C@@H]2O3)c1
activity change (%): -11.47

structure: C[C@H](CO)N1C[C@H](C)[C@H](CN(C)C(=O)Nc2cccc(Cl)c2Cl)OCc2ccccc2-c2c(n(C)c3ccccc23)C1=O
activity change (%): -89.97

structure: O=C(C[C@H]1C[C@@H]2c3cc(NC(=O)Nc4ccccc4F)ccc3O[C@@H]2[C@@H](CO)O1)NCc1ccc2c(c1)OCO2
activity change (%): 1.297

structure: O=C(C[C@@H]1CC[C@@H]2[C@H](COC[C@@H](O)CN2C(=O)Nc2ccc(Cl)c(Cl)c2)O1)NCc1ccc(Cl)c(Cl)c1
activity change (%): -41.36

structure: COc1cccc(S(=O)(=O)Nc2ccc3c(c2)[C@@H]2C[C@@H](CC(=O)NCc4ccccc4F)O[C@@H](CO)[C@@H]2O3)c1
activity change (%): -50.18

structure: O=C(C[C@H]1CC[C@@H]2[C@H](COC[C@@H](O)CN2C(=O)Nc2ccc(Cl)c(Cl)c2)O1)NCc1ccccc1
activity change (%): -12.94

structure: O=C(c1cccc(F)c1)N1CCCCN2[C@@H](CO)[C@@H](c3ccc(/C=C/c4ccccc4)cc3)[C@@H]2C1
activity change (%): -75.73

structure: O=S(=O)(Cc1ccccc1)N1CCCCN2[C@H](C1)[C@@H](c1ccc(-c3ccc(F)cc3)cc1)[C@@H]2CO
activity change (%): -4.61

structure: CO[C@H]1CN(C)C(=O)c2cc(NC(=O)Nc3ccc(Cl)c(Cl)c3)ccc2OC[C@H](C)NC[C@H]1C
activity change (%): -24.28

structure: C[C@@H]1CN([C@@H](C)CO)C(=O)c2c(c3ccccc3n2C)-c2ccccc2CO[C@@H]1CN(C)Cc1ccc(F)cc1
activity change (%): -0.6501

structure: O=S(=O)(c1ccc(F)cc1)N1CCCCN2[C@@H](CO)[C@@H](c3ccc(C#CC4CC4)cc3)[C@@H]2C1
activity change (%): -6.481

structure: CO[C@H]1CN(C)C(=O)c2cc(NC(=O)c3ccc4c(c3)OCO4)ccc2OC[C@H](C)N(CCC(F)(F)F)C[C@H]1C
activity change (%): 1.281

structure: C[C@@H]1CN([C@H](C)CO)C(=O)c2c(c3ccccc3n2C)-c2ccccc2CO[C@H]1CN(C)S(=O)(=O)c1ccc(Cl)cc1
activity change (%): -26.98

structure: O=C(Nc1ccc2c(c1)[C@H]1C[C@H](CC(=O)N3CCc4ccccc4C3)O[C@H](CO)[C@H]1O2)NC1CCCC1
activity change (%): -17.7

structure: O=C(C[C@H]1CC[C@H](NC(=O)c2ccc3c(c2)OCO3)[C@H](CO)O1)NCc1ccc(Oc2ccccc2)cc1
activity change (%): -23.67

structure: COc1ccccc1-c1ccc2c(c1)[C@H]1[C@H](CCN1S(=O)(=O)c1ccc(C)cc1)[C@@H](CO)N2
activity change (%): -72.59

structure: C[C@H]1CN([C@@H](C)CO)C(=O)c2c(c3ccccc3n2C)-c2ccccc2CO[C@H]1CN(C)Cc1ccc(F)cc1
activity change (%): -69.32

structure: CCCN1CCC2(CC1)CN(Cc1ccc3c(c1)OCO3)[C@H](CO)c1[nH]c3cc(OC)ccc3c12
activity change (%): -77.91

structure: CN1c2ccc(C#Cc3cccnc3)cc2[C@@H]2[C@@H](CCN2C(=O)C2CCCCC2)[C@H]1CO
activity change (%): -4.834

Some entries from above, unchanged:

structure	activity change (%)
COc1ccc2c3c([nH]c2c1)[C@H](CO)N(C(=O)NC(C)C)CC31CCN(C(=O)NC2CCCC2)CC1	-7.838
CN1c2ccc(C#Cc3cccnc3)cc2[C@H]2[C@H](CCN2S(=O)(=O)c2ccc(F)cc2)[C@@H]1CO	-8.711
C[C@@H]1CN([C@H](C)CO)C(=O)c2c(c3ccccc3n2C)-c2ccccc2CO[C@H]1CN(C)S(=O)(=O)c1ccc(Cl)cc1	-26.98
CCCN1CCC2(CC1)CN(Cc1ccc3c(c1)OCO3)[C@H](CO)c1[nH]c3cc(OC)ccc3c12	-77.91

The results are deposited in PubChem (AID1224904; Broad Institute, 2016).